The record followed here is publication PMC10681723.

Chains of the proteins cited; added tags and fusions are not shown. Lines headed by an entry give the natural chain unless they say otherwise; changes in a name come on top. A line that says so, or that is headed by a name, gives the form on record, which may keep a tag or linker. Residues count along the entry.
UniProt P32558: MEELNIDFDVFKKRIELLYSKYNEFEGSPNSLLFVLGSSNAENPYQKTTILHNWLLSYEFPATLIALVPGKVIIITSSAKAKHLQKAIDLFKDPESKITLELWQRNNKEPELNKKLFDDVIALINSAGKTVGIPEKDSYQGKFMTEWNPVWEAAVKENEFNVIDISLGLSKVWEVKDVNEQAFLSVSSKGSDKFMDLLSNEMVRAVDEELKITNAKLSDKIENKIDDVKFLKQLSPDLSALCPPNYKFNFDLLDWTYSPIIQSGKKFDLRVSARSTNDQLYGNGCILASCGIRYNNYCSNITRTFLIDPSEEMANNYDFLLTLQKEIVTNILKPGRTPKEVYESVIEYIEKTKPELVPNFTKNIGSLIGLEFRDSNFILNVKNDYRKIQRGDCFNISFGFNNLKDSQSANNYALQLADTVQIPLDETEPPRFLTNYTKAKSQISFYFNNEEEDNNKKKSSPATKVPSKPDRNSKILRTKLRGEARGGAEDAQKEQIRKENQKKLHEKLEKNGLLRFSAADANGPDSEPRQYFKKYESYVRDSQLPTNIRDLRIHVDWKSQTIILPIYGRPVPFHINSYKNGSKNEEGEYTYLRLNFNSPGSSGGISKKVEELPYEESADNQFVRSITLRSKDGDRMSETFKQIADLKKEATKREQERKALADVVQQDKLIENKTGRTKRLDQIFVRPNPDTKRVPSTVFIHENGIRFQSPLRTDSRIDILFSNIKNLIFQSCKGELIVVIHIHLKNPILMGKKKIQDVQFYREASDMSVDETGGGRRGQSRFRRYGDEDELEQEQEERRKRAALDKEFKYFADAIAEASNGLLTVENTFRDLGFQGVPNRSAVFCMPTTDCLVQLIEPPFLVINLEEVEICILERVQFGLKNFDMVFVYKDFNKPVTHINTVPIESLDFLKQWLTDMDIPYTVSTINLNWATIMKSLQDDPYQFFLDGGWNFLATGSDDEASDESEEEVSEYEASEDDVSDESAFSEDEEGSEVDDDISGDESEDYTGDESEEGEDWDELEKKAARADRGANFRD
TAP-tagged Spt16 N-terminal domain (Spt16-N-TAP) (budding yeast (S. cerevisiae)): residues 1-468 of P32558
TAP-tagged Spt16-m (SPT16-K692R693AA) (budding yeast (S. cerevisiae)) (P32558, form named): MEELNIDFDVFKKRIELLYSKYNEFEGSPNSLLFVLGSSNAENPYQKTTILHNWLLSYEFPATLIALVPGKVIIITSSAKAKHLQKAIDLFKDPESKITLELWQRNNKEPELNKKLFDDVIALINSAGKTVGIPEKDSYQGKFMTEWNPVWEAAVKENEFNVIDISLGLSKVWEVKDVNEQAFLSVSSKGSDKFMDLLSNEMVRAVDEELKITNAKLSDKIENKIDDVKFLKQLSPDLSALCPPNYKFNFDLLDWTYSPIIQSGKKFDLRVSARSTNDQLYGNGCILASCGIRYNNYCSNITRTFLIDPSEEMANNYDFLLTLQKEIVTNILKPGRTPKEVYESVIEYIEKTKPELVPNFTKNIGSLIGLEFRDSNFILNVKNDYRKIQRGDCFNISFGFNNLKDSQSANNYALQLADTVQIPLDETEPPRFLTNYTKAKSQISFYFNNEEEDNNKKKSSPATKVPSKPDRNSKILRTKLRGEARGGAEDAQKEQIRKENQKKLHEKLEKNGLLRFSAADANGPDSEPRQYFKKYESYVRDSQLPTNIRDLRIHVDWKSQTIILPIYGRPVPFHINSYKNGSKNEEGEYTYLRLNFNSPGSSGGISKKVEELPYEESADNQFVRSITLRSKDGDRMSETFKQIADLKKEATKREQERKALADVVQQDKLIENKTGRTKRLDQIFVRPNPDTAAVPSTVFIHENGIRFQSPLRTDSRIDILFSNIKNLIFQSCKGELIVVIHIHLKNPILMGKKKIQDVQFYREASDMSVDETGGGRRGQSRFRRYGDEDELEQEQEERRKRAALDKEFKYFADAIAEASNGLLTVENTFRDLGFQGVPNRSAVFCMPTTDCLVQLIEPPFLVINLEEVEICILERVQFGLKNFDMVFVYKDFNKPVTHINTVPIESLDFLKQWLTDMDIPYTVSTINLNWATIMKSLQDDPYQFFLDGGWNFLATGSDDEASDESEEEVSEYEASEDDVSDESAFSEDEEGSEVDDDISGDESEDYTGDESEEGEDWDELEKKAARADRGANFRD
TAP-tagged Spt16-ΔN (Spt16-ΔN-TAP) (budding yeast (S. cerevisiae)) (P32558, form named): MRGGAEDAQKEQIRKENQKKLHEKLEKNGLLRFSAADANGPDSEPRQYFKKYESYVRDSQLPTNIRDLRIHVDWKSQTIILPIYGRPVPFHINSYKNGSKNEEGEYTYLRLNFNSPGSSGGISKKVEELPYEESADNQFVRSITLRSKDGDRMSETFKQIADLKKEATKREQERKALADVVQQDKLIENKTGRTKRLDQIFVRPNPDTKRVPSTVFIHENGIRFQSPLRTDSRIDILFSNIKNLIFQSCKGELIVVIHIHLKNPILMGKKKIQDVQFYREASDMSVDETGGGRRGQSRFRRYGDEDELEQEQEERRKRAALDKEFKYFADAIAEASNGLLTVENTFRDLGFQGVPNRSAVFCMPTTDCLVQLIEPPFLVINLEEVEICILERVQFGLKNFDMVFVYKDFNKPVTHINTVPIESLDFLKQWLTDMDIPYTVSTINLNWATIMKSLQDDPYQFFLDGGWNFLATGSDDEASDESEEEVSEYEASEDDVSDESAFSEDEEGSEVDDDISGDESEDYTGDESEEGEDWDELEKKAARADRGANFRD
UniProt P29469: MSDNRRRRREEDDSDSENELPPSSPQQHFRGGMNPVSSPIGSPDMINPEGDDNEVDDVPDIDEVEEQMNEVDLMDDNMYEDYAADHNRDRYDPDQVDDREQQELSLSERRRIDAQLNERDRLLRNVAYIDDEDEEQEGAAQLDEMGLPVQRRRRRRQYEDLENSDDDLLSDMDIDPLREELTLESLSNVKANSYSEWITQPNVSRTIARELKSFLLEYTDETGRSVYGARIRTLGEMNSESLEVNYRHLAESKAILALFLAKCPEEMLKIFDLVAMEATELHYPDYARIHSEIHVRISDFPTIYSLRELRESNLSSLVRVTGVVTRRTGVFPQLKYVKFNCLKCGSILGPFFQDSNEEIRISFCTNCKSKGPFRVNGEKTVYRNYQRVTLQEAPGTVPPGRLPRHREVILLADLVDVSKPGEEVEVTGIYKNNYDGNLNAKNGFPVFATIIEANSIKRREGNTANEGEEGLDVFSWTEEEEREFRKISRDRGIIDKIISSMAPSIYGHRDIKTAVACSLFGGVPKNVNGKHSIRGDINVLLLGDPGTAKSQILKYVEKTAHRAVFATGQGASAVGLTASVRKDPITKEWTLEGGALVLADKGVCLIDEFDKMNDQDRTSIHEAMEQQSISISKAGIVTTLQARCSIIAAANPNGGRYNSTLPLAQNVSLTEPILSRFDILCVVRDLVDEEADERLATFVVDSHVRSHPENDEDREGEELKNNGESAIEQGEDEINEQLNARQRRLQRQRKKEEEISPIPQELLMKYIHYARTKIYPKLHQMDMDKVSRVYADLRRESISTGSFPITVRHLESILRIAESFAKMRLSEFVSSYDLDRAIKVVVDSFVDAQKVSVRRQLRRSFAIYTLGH
UniProt Q04636: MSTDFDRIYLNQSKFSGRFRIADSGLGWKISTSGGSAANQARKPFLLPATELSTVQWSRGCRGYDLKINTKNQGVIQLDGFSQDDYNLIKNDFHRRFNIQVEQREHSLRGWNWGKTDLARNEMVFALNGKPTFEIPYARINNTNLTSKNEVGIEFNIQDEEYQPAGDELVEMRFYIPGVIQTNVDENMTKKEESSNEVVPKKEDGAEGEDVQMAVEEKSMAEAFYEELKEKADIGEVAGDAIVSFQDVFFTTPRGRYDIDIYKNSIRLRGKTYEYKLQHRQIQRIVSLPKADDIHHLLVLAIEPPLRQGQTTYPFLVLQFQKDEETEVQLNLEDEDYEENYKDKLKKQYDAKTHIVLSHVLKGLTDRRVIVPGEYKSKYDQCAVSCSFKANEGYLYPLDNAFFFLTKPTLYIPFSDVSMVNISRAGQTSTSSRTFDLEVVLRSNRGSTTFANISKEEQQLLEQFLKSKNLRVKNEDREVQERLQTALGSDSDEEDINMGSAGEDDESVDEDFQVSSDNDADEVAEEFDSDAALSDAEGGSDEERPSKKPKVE

These are yes or no findings as the source states them, for the method shown. For part of these data: In cells and extracts the contact can be indirect. Some binding calls cover weakened binding; strength is not graded here.

The target of assay [1] is TAP-tagged Spt16 (Spt16-TAP), wild type (budding yeast (S. cerevisiae)) (UniProt P32558). Nature of the assay: co-IP; tandem affinity purification of TAP-tagged Spt16 from yeast lysate (IgG Sepharose, TEV elution, calmodulin resin; 25 mM Tris pH 8.0, 100 mM NaCl, DNase I); co-purified proteins by immunoblotting. (In western blotting, separated proteins are transferred to a membrane and probed.)

Assay [2] has as its target TAP-tagged Spt16-m (SPT16-K692R693AA) (budding yeast (S. cerevisiae)) (UniProt P32558). The assay is described as above.
The target of assay [3] is Flag-tagged Mcm2 (Mcm2-Flag) (budding yeast (S. cerevisiae)) (UniProt P29469). The assay is described as follows: co-IP; Mcm2-Flag purified on ANTI-FLAG M2 gel from lysates of wild-type and spt16-ΔN yeast cells (Flag-IP buffer, 100 mM KAc; pellet Flag-IP with 600 mM KAc); immunoblotting.
For assay [4], the target named is TAP-tagged Spt16 (Spt16-TAP), wild type (budding yeast (S. cerevisiae)) (UniProt P32558). Nature of the assay: affinity purification of the complex, Coomassie-stained gel; Spt16-TAP or Spt16-ΔN-TAP bound to IgG beads from yeast lysate, washed with IP buffer with 500 mM NaCl, eluted with TEV; SDS-PAGE and CBB staining.
Assay [5] addresses TAP-tagged Spt16-ΔN (Spt16-ΔN-TAP) (budding yeast (S. cerevisiae)) (UniProt P32558). The assay is described as above.
For assay [6], the target named is TAP-tagged Spt16 N-terminal domain (Spt16-N-TAP) (budding yeast (S. cerevisiae)) (UniProt P32558). Nature of the assay: co-IP; tandem affinity purification of TAP-tagged Spt16 from yeast lysate (IgG Sepharose, TEV elution, calmodulin resin; 25 mM Tris pH 8.0, 100 mM NaCl, DNase I); co-purified proteins by immunoblotting.
Assay [7] deals with Mcm2-Vc155 (budding yeast (S. cerevisiae)) (UniProt P29469). Nature of the assay: split reporter; split YFP (Vc155 and Vn173) in live yeast cells, wild-type and spt16-ΔN; S-phase cells counted; confocal microscopy.

For the substance “Flag-tagged Mcm2 (Mcm2-Flag) (from UniProt P29469 1-868)”, the binding entry in assay [1] and in assay [2] was “binds” throughout.

“histone H3 tri-methylated at lysine 4 (H3K4me3) (from UniProt P61830 1-136)”: the binding result in assay [3] is given as “binds”.

Turning to “Spt16 (in wild-type cells expressing Mcm2-Flag) (from UniProt P32558 1-1035)”, the binding result in assay [3] is listed as “binds”.

Take Pob3 (from UniProt Q04636 1-552): the binding entry in assay [4] and in assay [5] was “binds” in each case.

For “Mcm2–3A mutant protein (Y79A, Y82A, Y91A) (from UniProt P29469 1-868)”, the binding result in assay [1] is “binds”.

With Mcm2 (from UniProt P29469 1-868), the binding result in assay [1] and in assay [6] was “binds” in each case.

Consider “histone H3 acetylated at lysine 56 (H3K56ac) (from UniProt P61830 1-136)”, for which the binding result in assay [3] is on record as “binds weakly”.

On to “histone H3-Vn173 (from UniProt P61830 1-136)”, for which the binding entry in assay [7] is recorded as “binds”.

Take “histone H3 (co-purified with Mcm2-Flag) (from UniProt P61830 1-136)”: in assay [3], the binding entry is given as “binds”.
